PubChem BioAssay AID1259299 – Sanger Institute | 2017
Test: 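Knock-down screen of kinome and colorectal mutation genes alongside three targeted drugs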 (primary screen). Cells: human CAR1 colorectal cancer cells. Reagent: siRNA pool against human genes. Challenge: anchor drug BYL719 1 µM, cetuximab 5 µg/ml or trametinib 10 nM, or DMSO vehicle alone; exposure length not given. Measured: 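Cell viability as fraction of non-targeting siRNA wells, mean of replicates, with robust z-score and a synergy score for each of three drugs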. Reading the numbers: viability robust z-score, knock-down alone and viability, knock-down alone (DMSO): higher = more viable cells. Hit rule: 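Essential when viability robust z-score with knock-down alone (DMSO) is below -3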. Calls: active = essential (knock-down alone); inactive = no change.
Here is a random part of 794 reagents tested. 9 of them (1.1%) count as active. 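Calls rest on knock-down alone; synergy scores play no part in calls, and no gene passed the synergy cut.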 Viability is capped at 1. Further read-outs or replicates are left out here. The record does not give: the amount of reagent, the time to read-out.

gene symbol	viability robust z-score, knock-down alone	viability, knock-down alone (DMSO) (fraction of control)	call
STK32B	0.789	1	inactive
AKAP9	-0.317	0.898	inactive
DLG3	0.789	1	inactive
ERN1	-0.325	0.897	inactive
SLK	0.717	0.993	inactive
VRK3	0.789	1	inactive

Part of the list above, limited to “viability robust z-score, knock-down alone”:
AKAP9 = -0.317
DLG3 = 0.789
ERN1 = -0.325

Continued:
gene symbol	viability robust z-score, knock-down alone	viability, knock-down alone (DMSO) (fraction of control)	call
TAOK1	0.762	0.997	inactive
ITPK1	-1.5	0.789	inactive
PRKAA1	0.789	1	inactive
ITPKC	0.789	1	inactive
PKN2	0.269	0.952	inactive
CDK3	-0.0674	0.921	inactive
SHPK	-0.828	0.851	inactive
PAK2	-0.232	0.906	inactive
PI4KA	-0.255	0.904	inactive
PTEN	0.255	0.951	inactive
CDK18	0.789	1	inactive
MAPK10	0.225	0.948	inactive
CDADC1	-2.72	0.676	inactive
PIP5K1A	-1.2	0.817	inactive
